One assay concerns the target native ovalbumin (nOVA) (UniProt P01012). Briefly: ELISA, coated protein, dilution series of tPA F-EGF. In general terms: In an ELISA, binding on a coated surface is turned into a signal by an enzyme label.
Assay [1] addresses heat-denatured ovalbumin (dOVA) (UniProt P01012). Described as above.

Protein sequences, listed by entry. Tags and fused reporters are not part of them. Residues count along the entry.
UniProt P01012, residues 2-386: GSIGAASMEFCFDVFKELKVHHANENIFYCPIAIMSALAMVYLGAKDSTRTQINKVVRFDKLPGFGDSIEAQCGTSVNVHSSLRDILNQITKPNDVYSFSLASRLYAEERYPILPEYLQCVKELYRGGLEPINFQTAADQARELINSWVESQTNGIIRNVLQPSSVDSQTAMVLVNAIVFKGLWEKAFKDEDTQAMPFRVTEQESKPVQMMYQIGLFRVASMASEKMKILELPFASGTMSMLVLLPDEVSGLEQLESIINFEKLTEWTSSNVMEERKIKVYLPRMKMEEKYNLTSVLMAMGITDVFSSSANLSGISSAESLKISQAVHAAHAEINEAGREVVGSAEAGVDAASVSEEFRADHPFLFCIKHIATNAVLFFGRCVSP

Results are given in words; binding and its absence hold for the method and conditions named. Some results given as binding are weak or reduced against the parent protein; the word gives no strength. Tags and fused reporters may be left off the sequences shown.

B1: human tissue-type plasminogen activator finger EGF (tPA F-EGF) fragment with carboxy-terminal FLAG-tag-His-tag (protein, UniProt P00750 36-122, looked up, not shown: small tags and cut ends)
chain: SYQVICRDEKTQMIYQQHQSWLRPVLRSNRVEYCWCNSGRAQCHSVPVKSCSEPRCFNGGTCQQALYFSDFVCQCPEGFAGKCCEID
Regarding B1, the binding entry (in the assay with native ovalbumin (nOVA); in assay [1]) was “binds” in each case.

Source of the values: patent US20080220446A1, “Method for Detecting and/or Removing Protein and/or Peptide Comprising a Cross-Beta Structure From an Aqueous Solution Comprising a Protein” (priority 2005, published 2008).
